Assay results reported in paper PMC1828611.
These are yes or no findings as the source states them, for the method shown. Binding seen in cells or lysates may run through a third protein. For part of these data: Binding can be weak; no strength is given. For part of these data: Tags and fused reporters may be left off the sequences shown.

Sequences of proteins named here, by UniProt entry; tags and fusion partners are left off. A change or cut given only in a name is not applied to a line headed by its entry.
UniProt Q9VCQ7: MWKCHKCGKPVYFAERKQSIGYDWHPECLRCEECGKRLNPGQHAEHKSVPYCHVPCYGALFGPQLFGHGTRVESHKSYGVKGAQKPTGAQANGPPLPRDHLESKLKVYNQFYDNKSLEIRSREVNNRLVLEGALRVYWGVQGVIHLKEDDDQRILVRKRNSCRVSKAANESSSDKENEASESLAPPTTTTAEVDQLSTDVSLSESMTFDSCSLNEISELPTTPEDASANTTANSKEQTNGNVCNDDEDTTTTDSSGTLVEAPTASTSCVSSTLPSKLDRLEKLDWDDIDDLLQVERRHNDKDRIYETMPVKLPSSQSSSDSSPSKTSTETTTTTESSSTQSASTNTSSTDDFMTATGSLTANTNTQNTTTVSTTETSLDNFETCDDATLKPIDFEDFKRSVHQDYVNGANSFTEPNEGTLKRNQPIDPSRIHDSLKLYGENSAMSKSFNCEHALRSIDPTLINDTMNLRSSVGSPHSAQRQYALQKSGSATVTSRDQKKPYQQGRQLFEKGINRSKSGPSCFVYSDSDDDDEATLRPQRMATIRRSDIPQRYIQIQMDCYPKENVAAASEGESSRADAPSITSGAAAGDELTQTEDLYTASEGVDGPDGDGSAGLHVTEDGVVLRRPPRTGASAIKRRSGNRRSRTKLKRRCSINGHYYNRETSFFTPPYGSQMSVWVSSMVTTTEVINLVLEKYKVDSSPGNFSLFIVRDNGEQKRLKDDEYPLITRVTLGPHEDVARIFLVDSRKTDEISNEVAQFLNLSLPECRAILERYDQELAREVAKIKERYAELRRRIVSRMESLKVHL

What was measured:
[1] = molecular target: T1, Salvador (Sav), endogenous (Drosophila melanogaster (endogenous in Kc cells)) (UniProt Q9VCR6); assay: co-IP; endogenous proteins immunoprecipitated from Kc cell lysates with dRASSF antibodies (or Sav antibodies, Figure S2C); control Myc antibodies; blotted with Hpo66 and dRASSF antibodies
T1 sequence: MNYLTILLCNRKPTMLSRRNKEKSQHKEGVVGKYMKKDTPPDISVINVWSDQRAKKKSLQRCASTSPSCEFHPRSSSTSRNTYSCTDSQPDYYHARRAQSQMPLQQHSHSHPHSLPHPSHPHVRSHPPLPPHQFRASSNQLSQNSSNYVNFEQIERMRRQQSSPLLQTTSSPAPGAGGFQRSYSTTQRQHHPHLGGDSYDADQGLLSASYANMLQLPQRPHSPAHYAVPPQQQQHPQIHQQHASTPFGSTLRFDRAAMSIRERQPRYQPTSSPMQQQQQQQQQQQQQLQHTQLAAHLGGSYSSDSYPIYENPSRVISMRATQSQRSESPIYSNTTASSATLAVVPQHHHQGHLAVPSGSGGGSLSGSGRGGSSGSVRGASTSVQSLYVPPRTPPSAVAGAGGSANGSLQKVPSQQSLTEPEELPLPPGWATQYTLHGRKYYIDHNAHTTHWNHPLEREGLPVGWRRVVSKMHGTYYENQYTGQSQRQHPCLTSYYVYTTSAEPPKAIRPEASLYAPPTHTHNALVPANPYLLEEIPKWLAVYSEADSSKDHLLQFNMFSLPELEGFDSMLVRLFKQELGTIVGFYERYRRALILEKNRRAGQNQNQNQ

[2] = molecular target: T2, Sav-HA (Drosophila melanogaster) (UniProt Q9VCR6); assay: co-IP; Hpo-Myc, Sav-HA and GFP-dRASSF cotransfected in Kc cells; anti-Myc, anti-HA, anti-dRASSF or control (anti-Flag) immunoprecipitates blotted for GFP-dRASSF, Sav-HA, Hpo-Myc and phospho-MST1
T2 sequence: T1 sequence

[3] = molecular target: T3, Hpo-Myc (Drosophila melanogaster) (UniProt Q8T0S6); assay: as above
T3 sequence: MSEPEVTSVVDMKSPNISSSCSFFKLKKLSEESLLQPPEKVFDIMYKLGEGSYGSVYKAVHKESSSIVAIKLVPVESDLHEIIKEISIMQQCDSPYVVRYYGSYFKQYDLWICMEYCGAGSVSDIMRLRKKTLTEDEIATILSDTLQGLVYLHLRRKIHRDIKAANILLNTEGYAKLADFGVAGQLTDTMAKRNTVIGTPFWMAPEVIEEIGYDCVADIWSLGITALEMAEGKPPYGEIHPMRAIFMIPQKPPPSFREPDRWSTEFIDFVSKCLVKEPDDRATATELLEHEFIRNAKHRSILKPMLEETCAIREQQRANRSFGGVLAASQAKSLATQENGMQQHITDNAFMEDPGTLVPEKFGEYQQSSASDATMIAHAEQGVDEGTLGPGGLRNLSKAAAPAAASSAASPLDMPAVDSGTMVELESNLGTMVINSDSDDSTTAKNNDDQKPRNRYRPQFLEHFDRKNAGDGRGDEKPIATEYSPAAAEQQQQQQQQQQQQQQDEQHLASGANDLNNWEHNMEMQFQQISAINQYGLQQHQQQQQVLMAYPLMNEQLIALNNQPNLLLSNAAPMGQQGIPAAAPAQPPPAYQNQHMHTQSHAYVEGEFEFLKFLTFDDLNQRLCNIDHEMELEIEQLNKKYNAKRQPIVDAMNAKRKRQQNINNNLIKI

| Substance | binding [1] | binding [2] | binding [3] |
| --- | --- | --- | --- |
| Drosophila RASSF ortholog (dRASSF), endogenous (from UniProt Q9VCQ7) | no binding | – | – |
| GFP-dRASSF (Drosophila melanogaster) | – | no binding | binds |
